The experiment has as its target Flag-HOXA5 (UniProt P20719). Put plainly: co-IP; immunoprecipitation with Flag antibody in Flag-HOXA5 overexpression 769P cells; non-specific IgG as negative control; partners detected by blot.

By UniProt entry, the sequences of proteins in these tests, tags left out.
UniProt P20719: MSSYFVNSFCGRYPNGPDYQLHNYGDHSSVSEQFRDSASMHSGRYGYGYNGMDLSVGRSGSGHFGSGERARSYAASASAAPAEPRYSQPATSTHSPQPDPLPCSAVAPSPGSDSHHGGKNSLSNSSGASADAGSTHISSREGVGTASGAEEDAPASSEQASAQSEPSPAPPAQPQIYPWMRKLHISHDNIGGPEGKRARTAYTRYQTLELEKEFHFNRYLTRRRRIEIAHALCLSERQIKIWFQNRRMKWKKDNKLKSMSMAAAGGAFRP
UniProt Q9UJW3: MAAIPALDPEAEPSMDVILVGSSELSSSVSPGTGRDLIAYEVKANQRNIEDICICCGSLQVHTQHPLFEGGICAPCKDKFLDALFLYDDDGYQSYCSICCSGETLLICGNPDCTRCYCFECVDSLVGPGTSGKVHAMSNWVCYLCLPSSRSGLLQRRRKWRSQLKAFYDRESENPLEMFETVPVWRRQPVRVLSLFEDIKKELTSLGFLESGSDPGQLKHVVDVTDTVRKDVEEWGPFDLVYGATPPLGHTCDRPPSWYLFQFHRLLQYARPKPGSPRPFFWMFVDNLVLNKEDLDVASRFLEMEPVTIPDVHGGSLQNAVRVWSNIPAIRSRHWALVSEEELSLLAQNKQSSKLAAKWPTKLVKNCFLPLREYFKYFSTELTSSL

No constants are given. Whether binding was seen depends on the method and setting. Binding seen in cells or lysates may run through a third protein. Some binding calls cover weakened binding; strength is not graded here.

As for DNMT3L (from UniProt Q9UJW3 1-386), the binding result is “binds”.

The values are drawn from article PMC9761964.
